Assay results as given in paper PMC8495200.
Results are given in words; binding and its absence hold for the method and conditions named. In cells and extracts the contact can be indirect. Here binding means that the protein was enriched with, or labelled near, the bait; the list need not be complete.

The substances below were run against UBXD9-GFP (C-terminally tagged UBXD9) (D. discoideum) (UniProt Q54X06) (assay: affinity purification with mass spectrometry; GFP-trap beads, soluble proteins of AX2 cells expressing UBXD9-GFP or GFP-UBXD9 against AX2/GFP; four replicates, fold change > 1.4 and p < 0.05).

Substance | binding
Probable arginine–tRNA ligase (from UniProt Q558Z0) (enzyme) | binds
cAMP-binding protein 1 (from UniProt P19198) | binds
V-type proton ATPase subunit G (from UniProt Q54Z13) | binds
Myosin-J heavy chain (from UniProt P54697 1-2245) | binds
Putative bifunctional amine oxidase (from UniProt Q54EW2) | binds
ADP-ribosylation factor 1 (from UniProt O00909 1-182) | binds
Lysine–tRNA ligase (from UniProt Q54TY4) (enzyme) | binds

Other lines, results leading:

binding | Substance
binds | Probable serine/threonine-protein kinase DDB_G0277449 (from UniProt Q8MYF1) (enzyme)
binds | Ran binding protein 1 domain-containing protein (from UniProt Q54KD9)
binds | p97, endogenous (from UniProt P90532 1-793) (enzyme)
binds | Cysteine proteinase 5 (from UniProt P54640) (enzyme)
binds | Eukaryotic peptide chain release factor (from UniProt Q9BMX0)
binds | Drebrin-like protein (from UniProt Q557J6)
binds | Actin-binding protein F (from UniProt Q54ET6 1-2364)

The substances below were run against BirA-UBXD9 (D. discoideum) (UniProt Q54X06) (assay: proximity labelling; BioID: AX2/BirA-UBXD9 cells with 50 uM biotin for 16 h against AX2, streptavidin sepharose beads, mass spectrometry; four replicates, fold change > 1.4 and p < 0.05).

binding | Substance
binds | p97, endogenous (from UniProt P90532 1-793) (enzyme)
binds | Eukaryotic peptide chain release factor (from UniProt Q9BMX0)
